Measurements reported in PubChem BioAssay AID1224830 (NIAID, 2016).

- Test: 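Host factors that control LPS-induced TNF expression in human macrophages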 (primary screen)
- Cell system: human THP-1 monocytic leukaemia cells, TNF dual-luciferase reporter clone, PMA-differentiated to macrophage-like cells
- Reagent: siRNA pool against human genes, 50 nM
- Time to read-out: LPS for 4 h, given about 3 days after siRNA transfection
- Treatment: bacterial LPS (TLR4 ligand), 10 ng/ml
- Measurement: 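Ratio of firefly to renilla light, scaled to the plate median and expressed as a robust z-score per replicate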
- Reading the numbers: TNF reporter robust z-score: higher = stronger TNF reporter response to LPS
- Hit rule: 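Each well counts as active if its z-score is over 2.8 or under -1.5; controls are left without a call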
The whole screen tested about 18,000 reagents; this is a part drawn at random. Of all reagents, about 2,900 (16%) are marked active. 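Calls are made per well; low scores hint the gene aids the LPS response, high scores that it dampens it.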 Unmarked entries are inactive. Repeated entries: four replicate wells of each siRNA pool.

no.	gene	TNF reporter robust z-score
1	PDZD2	0.86
2	PDZD2	-0.06
3	PDZD2	0.41
4	PDZD2	0.09
5	FAM3C	0.5
6	FAM3C	1.21
7	FAM3C	0.53
8	FAM3C	0.81
9	HLA-DPB1	0.1
10	HLA-DPB1	0.21
11	HLA-DPB1	0.28
12	HLA-DPB1	-0.37
13	ZSCAN29	0.52
14	ZSCAN29	1.4
15	ZSCAN29	0.24
16	ZSCAN29	0.59
17	OTX2	-0.89
18	OTX2	-0.7
19	OTX2	0.16
20	OTX2	-0.75
21	EHD4	1.2
22	EHD4	-0.37
23	EHD4	0.84
24	EHD4	1.94
25	IQCJ	-1.22
26	IQCJ	-1.18
27	IQCJ	0.82
28	IQCJ	-0.71
29	ASPN	-1.11
30	ASPN	-1.25
31	ASPN	-1.18
32	ASPN	-1.09
33	RDM1	0.78
34	RDM1	1.12
35	RDM1	-0.73
36	RDM1	0.9
37	TRIM21	0.1
38	TRIM21	-0.28
39	TRIM21	0.48
40	TRIM21	-0.05
41	NFYC	-1.02
42	NFYC	-1.54 (active)
43	NFYC	-1.59 (active)
44	NFYC	-1.17
45	ITGB2	1.47
46	ITGB2	2.93 (active)
47	ITGB2	2.36
48	ITGB2	1.91
49	COL7A1	-0.18
50	COL7A1	1.08
51	COL7A1	-0.09
52	COL7A1	-0.04
53	BICD2	1.59
54	BICD2	2.04
55	BICD2	2.3
56	BICD2	1.58
57	ARHGAP4	-0.22
58	ARHGAP4	0.11
59	ARHGAP4	0.1
60	ARHGAP4	-0.47
61	UBN1	-0.05
62	UBN1	0.11
63	UBN1	-0.08
64	UBN1	-0.03
65	TESMIN	0.52
66	TESMIN	-0.12
67	TESMIN	-0.5
68	TESMIN	0.65
69	NSMAF	0.36
70	NSMAF	0
71	NSMAF	-0.25
72	NSMAF	0.06
73	IGSF1	-0.38
74	IGSF1	0.39
75	IGSF1	0.25
76	IGSF1	0.78
77	GINS2	-1.91 (active)
78	GINS2	-1.84 (active)
79	GINS2	-1.34
80	GINS2	-1.82 (active)
81	SCARF1	-1.31
82	SCARF1	0.49
83	SCARF1	0.52
84	SCARF1	0.19
85	ZNF875	-1.45
86	ZNF875	-1.52 (active)
87	ZNF875	-1.09
88	ZNF875	-1.31
89	DPPA3	-0.8
90	DPPA3	-1.07
91	DPPA3	-1.23
92	DPPA3	-0.42
93	ARL6IP6	-0.34
94	ARL6IP6	-0.75
95	ARL6IP6	0.97
96	ARL6IP6	0.15
97	ARPC2	0
98	ARPC2	0.01
99	ARPC2	-0.19
100	ARPC2	0.23
101	PCDHGA11	0.19
102	PCDHGA11	0.96
103	PCDHGA11	-0.38
104	PCDHGA11	1.48
105	SLC22A7	-0.5
106	SLC22A7	-0.41
107	SLC22A7	-0.31
108	SLC22A7	-0.34
109	CFAP141	-1.43
110	CFAP141	-1.31
111	CFAP141	-1.02
112	CFAP141	-1.09

Called active, of those listed so far:
gene	TNF reporter robust z-score
NFYC	-1.54 (active)
NFYC	-1.59 (active)
ITGB2	2.93 (active)
GINS2	-1.91 (active)
GINS2	-1.84 (active)
GINS2	-1.82 (active)
ZNF875	-1.52 (active)
